Assay results as given in the supplement of paper PMC6078165.
Values are relative to the signal before dosing, not to a vehicle control; the signal also falls without drug.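 Labels refer to human fibroblasts, largely primary: uterine (C12385, HUF), lung (H6013), bone (Hs27A), adrenal (HADF), skin (WS1), plus mammary HMF and breast cancer-associated Hs343T. Cancer lines are basal-like or mesenchymal-like triple-negative breast cancer. The paper counts as hits responses shifting over 3x the replicate standard deviation. The tissue of the other fibroblasts is not given here.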

Test system: MDAMB468
Assay: relative JC-1 red fluorescence (viability) vs pre-drug, coculture with fibroblast (fraction); higher = more viable cancer cells
Description: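 JC-1 labelled TNBC cells cocultured 1:1 (1,500 cells each) with CellTrace Violet stained primary or stromal fibroblasts in 384-well plates in FluoroBrite medium, treated with one of 42 anticancer drugs at 0.1, 1, 10 or 100 uM. JC-1 red fluorescence (mitochondrial integrity in cancer cells only) was read by plate reader every 8 h for 72 h. Values are normalised to each well's pre-drug value. The stock of one drug was tenfold lower, so its dose labels may be too high.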

CCc1c2c(nc3ccc(OC(=O)N4CCC(N5CCCCC5)CC4)cc13)-c1cc3c(c(=O)n1C2)COC(=O)[C@]3(O)CC [Irinotecan]
relative JC-1 red fluorescence
Conditions	8 h	16 h	24 h	32 h	40 h	48 h	56 h	64 h	72 h
0.1 µM, coculture fibroblast: C12385	0.884	0.837	0.837	0.789	0.753	0.756	0.726	0.712	0.717
0.1 µM, coculture fibroblast: H6013	0.856	0.843	0.799	0.782	0.732	0.729	0.697	0.68	0.64
0.1 µM, coculture fibroblast: H6019	0.8251	0.809	0.794	0.744	0.707	0.701	0.644	0.612	0.59
0.1 µM, coculture fibroblast: H6076	0.899	0.884	0.907	0.95	0.872	0.887	0.876	0.869	0.914
0.1 µM, coculture fibroblast: H6231	0.825	0.911	0.804	0.793	0.739	0.722	0.675	0.647	0.63
0.1 µM, coculture fibroblast: HADF	0.8911	0.8521	0.8044	0.78445	0.7347	0.7247	0.68525	0.668	0.634
0.1 µM, coculture fibroblast: HCFa	0.8681	0.8376	0.7841	0.756	0.69	0.679	0.631	0.598	0.562
0.1 µM, coculture fibroblast: HCPF	0.871	0.895	0.822	0.8398	0.766	0.742	0.704	0.6957	0.6982
0.1 µM, coculture fibroblast: HHSteC	0.9034	0.8737	0.8382	0.8084	0.7707	0.7659	0.693	0.664	0.611
0.1 µM, coculture fibroblast: HMF	0.825	0.892	0.843	0.842	0.763	0.753	0.71	0.699	0.696
0.1 µM, coculture fibroblast: HPFa	0.9173	0.8616	0.835	0.771	0.737	0.726	0.657	0.619	0.5367
0.1 µM, coculture fibroblast: HUF	0.9024	0.81803	0.766	0.7	0.659	0.64	0.596	0.587	0.569
0.1 µM, coculture fibroblast: Hs5	0.937	0.921	0.9504	0.9748	0.923	0.903	0.8921	0.8681	0.922
0.1 µM, coculture fibroblast: Hs27A	0.8758	0.8218	0.7715	0.767	0.7101	0.707	0.673	0.653	0.613
0.1 µM, coculture fibroblast: Hs343T	0.8535	0.844	0.86	0.8853	0.812	0.813	0.78	0.787	0.794
0.1 µM, coculture fibroblast: WS1	0.848	0.791	0.763	0.713	0.667	0.642	0.618	0.601	0.596
1 µM, coculture fibroblast: C12385	0.8569	0.844	0.823	0.78	0.759	0.77	0.739	0.727	0.724
1 µM, coculture fibroblast: H6013	0.8724	0.866	0.824	0.801	0.79	0.799	0.773	0.769	0.714
1 µM, coculture fibroblast: H6019	0.843	0.838	0.82	0.786	0.769	0.768	0.732	0.709	0.693
1 µM, coculture fibroblast: H6076	0.891	0.863	0.8183	0.8167	0.753	0.763	0.7471	0.735	0.7783
1 µM, coculture fibroblast: H6231	0.827	0.84736	0.7921	0.7829	0.71	0.689	0.648	0.624	0.618
1 µM, coculture fibroblast: HADF	0.885	0.888	0.8199	0.81133	0.766	0.754	0.721	0.705	0.666
1 µM, coculture fibroblast: HCFa	0.8857	0.8778	0.8252	0.787	0.735	0.727	0.672	0.636	0.5823
1 µM, coculture fibroblast: HCPF	0.828	0.901	0.841	0.8342	0.773	0.7191	0.665	0.644	0.63
1 µM, coculture fibroblast: HHSteC	0.925	0.89	0.837	0.793	0.753	0.741	0.676	0.653	0.61
1 µM, coculture fibroblast: HMF	0.8545	0.925	0.8707	0.842	0.764	0.752	0.6968	0.677	0.662
1 µM, coculture fibroblast: HPFa	0.904	0.8543	0.812	0.7501	0.71991	0.705	0.6389	0.607	0.5276
1 µM, coculture fibroblast: HUF	0.8773	0.8249	0.791	0.732	0.687	0.668	0.623	0.606	0.587
1 µM, coculture fibroblast: Hs5	0.97	0.953	0.94	0.911	0.849	0.819	0.799	0.762	0.771
1 µM, coculture fibroblast: Hs27A	0.828	0.858	0.773	0.762	0.712	0.702	0.666	0.639	0.602
1 µM, coculture fibroblast: Hs343T	0.841	0.85	0.792	0.76	0.687	0.668	0.631	0.618	0.621
1 µM, coculture fibroblast: WS1	0.8454	0.803	0.7642	0.7063	0.6663	0.644	0.622	0.6	0.596
10 µM, coculture fibroblast: C12385	0.891	0.829	0.803	0.735	0.694	0.677	0.633	0.599	0.586
10 µM, coculture fibroblast: H6013	0.887	0.882	0.823	0.782	0.721	0.715	0.669	0.648	0.595
10 µM, coculture fibroblast: H6019	0.83	0.867	0.865	0.828	0.808	0.809	0.759	0.743	0.737
10 µM, coculture fibroblast: H6076	0.947	0.939	0.95	0.954	0.871	0.8568	0.817	0.794	0.866
10 µM, coculture fibroblast: H6231	0.853	0.9509	0.889	0.884	0.824	0.802	0.747	0.707	0.678
10 µM, coculture fibroblast: HADF	0.8985	0.855	0.814	0.7822	0.7055	0.674	0.615	0.58	0.517
10 µM, coculture fibroblast: HCFa	0.872	0.867	0.814	0.779	0.699	0.684	0.628	0.589	0.541
10 µM, coculture fibroblast: HCPF	0.889	0.894	0.868	0.88	0.786	0.7711	0.729	0.724	0.732
10 µM, coculture fibroblast: HHSteC	0.902	0.892	0.854	0.824	0.787	0.776	0.692	0.666	0.605
10 µM, coculture fibroblast: HMF	0.871	0.902	0.879	0.912	0.826	0.826	0.787	0.781	0.799
10 µM, coculture fibroblast: HPFa	0.959	0.962	0.931	0.873	0.839	0.827	0.761	0.739	0.661
10 µM, coculture fibroblast: HUF	0.916	0.807	0.756	0.691	0.634	0.5938	0.546	0.527	0.501
10 µM, coculture fibroblast: Hs5	0.895	0.9578	0.865	0.867	0.801	0.805	0.855	0.819	0.715
10 µM, coculture fibroblast: Hs27A	0.8929	0.852	0.7821	0.7641	0.683	0.6558	0.616	0.592	0.545
10 µM, coculture fibroblast: Hs343T	0.878	0.9233	0.883	0.889	0.794	0.774	0.721	0.71	0.709
10 µM, coculture fibroblast: WS1	0.8836	0.813	0.7877	0.754	0.704	0.685	0.664	0.648	0.646
100 µM, coculture fibroblast: C12385	0.8363	0.835	0.824	0.766	0.732	0.734	0.696	0.677	0.67
100 µM, coculture fibroblast: H6013	0.889	0.904	0.86	0.848	0.867	0.883	0.856	0.863	0.812
100 µM, coculture fibroblast: H6019	0.851	0.8546	0.826	0.77	0.742	0.748	0.716	0.723	0.73
100 µM, coculture fibroblast: H6076	0.951	0.968	0.951	0.94	0.876	0.889	0.865	0.859	0.887
100 µM, coculture fibroblast: H6231	0.837	0.899	0.831	0.814	0.719	0.691	0.641	0.609	0.61
100 µM, coculture fibroblast: HADF	0.915	0.92	0.885	0.893	0.915	0.906	0.873	0.863	0.769
100 µM, coculture fibroblast: HCFa	0.911	0.9	0.8613	0.8396	0.8172	0.826	0.791	0.769	0.73
100 µM, coculture fibroblast: HCPF	0.921	0.966	0.937	0.832	0.9	0.879	0.858	0.856	0.857
100 µM, coculture fibroblast: HHSteC	0.92	0.905	0.861	0.832	0.804	0.8194	0.7594	0.7397	0.674
100 µM, coculture fibroblast: HMF	0.8849	0.928	0.877	0.868	0.778	0.77	0.731	0.715	0.711
100 µM, coculture fibroblast: HPFa	0.9467	0.962	0.939	0.885	0.89	0.889	0.839	0.843	0.775
100 µM, coculture fibroblast: HUF	0.8631	0.8016	0.7492	0.689	0.647	0.636	0.593	0.591	0.584
100 µM, coculture fibroblast: Hs5	0.9773	0.94	0.9214	0.913	0.851	0.835	0.778	0.71	0.719
100 µM, coculture fibroblast: Hs27A	0.916	0.987	0.9161	0.984	0.807	0.761	0.903	0.815	0.93
100 µM, coculture fibroblast: Hs343T	0.895	0.9596	0.922	0.92	0.839	0.83	0.796	0.774	0.772
100 µM, coculture fibroblast: WS1	0.847	0.795	0.758	0.709	0.667	0.628	0.586	0.559	0.551
